Laboratory results as given in PMC11189428.
No constants are given. Whether binding was seen depends on the method and setting. Binding seen in cells or lysates may run through a third protein. A result given as binding can be weak or reduced; the word gives no strength.

Chains of the proteins cited; added tags and fusions are not shown. Lines headed by an entry give the natural chain unless they say otherwise; changes in a name come on top. Residues count along the entry.
UniProt P38647, residues 47-679: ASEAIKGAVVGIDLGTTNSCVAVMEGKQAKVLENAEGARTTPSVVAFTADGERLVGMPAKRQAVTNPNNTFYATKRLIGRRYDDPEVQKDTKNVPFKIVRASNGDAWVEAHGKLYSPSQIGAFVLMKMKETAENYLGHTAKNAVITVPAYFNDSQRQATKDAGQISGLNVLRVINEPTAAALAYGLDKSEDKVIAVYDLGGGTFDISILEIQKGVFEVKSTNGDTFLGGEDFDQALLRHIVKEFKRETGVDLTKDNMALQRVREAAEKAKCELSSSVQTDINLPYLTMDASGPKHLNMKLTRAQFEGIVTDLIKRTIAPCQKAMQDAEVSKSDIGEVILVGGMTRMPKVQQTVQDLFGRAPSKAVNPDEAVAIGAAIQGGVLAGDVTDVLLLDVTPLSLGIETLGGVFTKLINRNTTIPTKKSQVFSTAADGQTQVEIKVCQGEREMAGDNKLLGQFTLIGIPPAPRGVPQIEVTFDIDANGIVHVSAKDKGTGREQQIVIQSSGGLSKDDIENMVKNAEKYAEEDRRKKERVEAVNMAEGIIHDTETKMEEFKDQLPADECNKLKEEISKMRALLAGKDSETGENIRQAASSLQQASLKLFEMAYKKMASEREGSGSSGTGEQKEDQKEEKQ
UniProt Q60932: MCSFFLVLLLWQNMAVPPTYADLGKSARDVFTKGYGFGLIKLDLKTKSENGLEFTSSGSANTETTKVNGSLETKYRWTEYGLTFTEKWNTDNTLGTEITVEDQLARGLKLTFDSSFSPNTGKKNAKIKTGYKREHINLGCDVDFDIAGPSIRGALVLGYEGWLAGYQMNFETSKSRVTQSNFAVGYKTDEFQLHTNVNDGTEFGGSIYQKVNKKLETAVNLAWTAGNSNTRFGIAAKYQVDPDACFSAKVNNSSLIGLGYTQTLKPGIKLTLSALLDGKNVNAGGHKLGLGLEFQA

Assays:
[1] = target: glucose-regulated protein 75 (mouse (endogenous in mouse hippocampus, primary microglia and BV2 cells)) (UniProt P38647); test: proximity ligation; Duolink PLA on cells grown on coverslips, fixed with 4% paraformaldehyde, 0.1% Triton X-100; primary microglia (and BV2 cells) untreated or treated with thapsigargin (1 uM, 12 h) or ATP (1 mM, 2 h)
[2] = target: glucose-regulated protein 75 (mouse (endogenous in mouse hippocampus, primary microglia and BV2 cells)) (UniProt P38647); test: proximity ligation; in situ Duolink PLA on 35-um frozen mouse brain sections (hippocampal DG), primary antibodies to IP3R-3, GRP75 and VDAC1 1:200 overnight at 4 C; control and CSDS mice, Iba-1 staining for microglia

- binding [1]: binds
- binding [2]: binds
Substance: voltage-dependent anion channel 1 (from UniProt Q60932)
